For the test, the target named is recombinant Fc chimeric conjugate of human IL12 Rβ1 (human) (UniProt P42701). Nature of the test: ELISA, coated antigen.

Positions count from the first letter of the chain named. Results are given in words; binding and its absence hold for the method and conditions named.

B1: Antibody D08 (antibody, V domains shown)
VH: QSLEESGGRLVTPGTPLTLTCTVSGFSLGTYWMSWVRQAPGRGLDWIGFIGSSGNGNYASWAKGRFTISRASSTTVDLKMTSLTTEDTATYFCARVKYFYYFDLWGQGTLVTVSS
VL: AQVLTQTTSPVSAAVGGTVTINCQASESVYGKKYLSWYQQKPGQPPKQLIYEASKLASGVPSRFEGSGSGTQFTLTISGVQCDDAATYYCQGEFSCSSADCTAFGGGTEVVVK
notes: rabbit IgG in B-cell supernatant
Take B1: the binding entry is on record as “no binding (tested: OD 0.1 or lower)”.

B2: Antibody 9 (antibody, V domains shown)
VH: QEQLEESGEGLVKPGTPLTLTCTASGFSLSSGDMSWVRQAPGKGLEWIGTIGVDGSTDYANWAEGRFTISRTSTTVDLKMTSPTTEDTATYFCARGLFDDYTFNLWGQGTLVTVSS
VL: AYDMTQTPASVEVAVGGTVTIKCQASQNIYTYLSWYQQKPGQPPKLLIYKTSTLASGVPSRFSGSGSGTEYTLTVSGVQCDDAATYYCQQGYTTSSNVATPFGGGTEVVVK
notes: as for B1
Take B2: the binding result is reported as “no binding (tested: OD 0.1 or lower)”.

B3: Antibody 47 (antibody, V domains shown)
VH: QSVEESGGRLVTPGTPLTLTCTVSGFSLSSYAMNWVRQAPGKGLEWIGIIDSSGITYYATWAKGRFTISKTSTTVDLKMTSLTTEDTATYFCARGVTLWGQGTLVTVSS
VL: AQVLTQTASPVSAAVGSTVTINCQASQSVYNNNRLSWFQQKPGQPPKLLISGASTLASGVSSRFSGSGSGTQFTLTISDVQCDDAATYYCLGSYDCSSADCGAFGGGTEVVVK
notes: as for B1
As to B3, the binding entry is reported as “no binding (tested: OD 0.1 or lower)”.

B4: Antibody 24 (antibody, V domains shown)
VH: QSVEESGGRLVTPGTPLTLTCTVSGFSLSSNAISWVRQAPGKGLEWIGFINIYGSTYYASWAKGRFTISRTSTTVDLKMTSLTTEDTATYFCARDRTGDSPTRLDLWGQGTLVTVSS
VL: DVVMTQTPASVEAAVGGTVTIKCQASQSISSYLSWYQQKPGQPPKLLIYDASTLASGVPSRFKGSGSGTQFTLTISDLECADAATYYCQCTYGYGASSAYGNAFGGGTEMVVK
notes: as for B1
B4: the binding entry is listed as “no binding (tested: OD 0.1 or lower)”.

B5: Antibody 64 (antibody, V domains shown)
VH: QEQLKESGGGLVTPGTPLTLTCTASGFTISSYDMGWVRQAPGKGLEWIGYIWSGGSTYYANWAKGRFTISKTSTTVDLKMTSLTTEDTATYFCARVEFYSYVYVLWGPGTLVTVSS
VL: AFELTQTPSSVEAAVGGTVTIKCQASQSISGCLAWYQQKPGQPPKLLIYLASTLASGVSSRFRGSGSGTEYTLTISGVECDDAATYYCQQHYSSNNVDNAFGGGTEVVVK
notes: as for B1
With B5, the binding entry is “no binding (tested: OD 0.1 or lower)”.

B6: Antibody 077.D03 (antibody, V domains shown)
VH: QSVEESGGRLVTPGTPLTLTCTVSGIDLSSNAMSWVRQAPGKGLEWIGFISSSGTTYYASWAKGRFTISKTSTTVDLKITSPTTEDTATYFCTRFDLWGQGTLVTVSS
VL: DVVMTQTPASVSEPVGGTVTINCQASQSITTALAWYQQKPGQPPKLLIYKASTLASGVSSRFKGSGSGAEYTLTISDLECADAATYYCQCTGYDTSYVGGFGGGTEVVVK
notes: as for B1
Consider B6, for which the binding result is listed as “no binding (tested: OD 0.1 or lower)”.

B7: Antibody 52 (antibody, V domains shown)
VH: QSVEESGGRLVTPGTALTLTCTVSGFSLSSGDMSWVRQAPGKGLEWIGYIWSGVSTYYANWAKGRFTISKTSSTTVDLKMTSLTIEDTATYFCARVDFYSYVYSLWGPGTLVTVSS
VL: ALVMTQTPASVEAAVGGTVTIKCQASQSISSCLAWYQQKPGQPPKLLIYSASTLASGVPSRFKGSGSGTEYTLTISGVECADAATYYCQQHYTSNNIDNAFGGGTEVVVK
notes: as for B1
For the molecule B7, the binding entry is given as “no binding (tested: OD 0.1 or lower)”.

B8: Antibody 60 (antibody, V domains shown)
VH: QSLEESGGRLVTPGGSLTLTCTVSGSDISSYDMSWVRQAPGKGLEWIGYIWSGTTTYYANWAKGRFTISKTSSTTVDLKMTSLTTEDTATYFCATVNIYTYVYSLWGPGTLVTVSS
VL: B7 VL with L2Y, V3D, A13V, S31T, C32A, P40S, S50L, T93S, S94G, I97V
For B8, the binding entry is “no binding (tested: OD 0.1 or lower)”.

B9: Antibody 55 (antibody, V domains shown)
VH: B8 VH with T56I, N60S, A62P, T95A, V96I
VL: AYDMTQTPASVEAAVGGTVTIKCQASESIYSSLAWYQQKSGQPPKLLIYLASTLASGVPSRFKGSGSGTDYTLTISGVECADAATYYCQQHYSGSNVDNAFGGGTEVVVK
notes: as for B1
Consider B9, for which the binding result is on record as “no binding (tested: OD 0.1 or lower)”.

B10: Antibody 56 (antibody, V domains shown)
VH: QSLEESGGRLVTPGTPLTLTCTASGFSLSSYDLSWVRQAPGKGLEWIAYIWSGDKTYYANWAKGRFTISKTSSTTVDLKMTSLTTEDTATYFCATVNIYSYVYSLWGPGTLVTVSS
VL: B9 VL with A13V, E27Q, Y30S, S31T, S32A, D70E, G94S, S95N
notes: as for B1
As for B10, the binding entry is listed as “no binding (tested: OD 0.1 or lower)”.

B11: Antibody 53 (antibody, V domains shown)
VH: B8 VH with S30T, M33A, T55K, N60S, I98T
VL: B9 VL with A13V, E27Q, Y30S, D70E, S93T, G94A, S95L
notes: as for B1
Take B11: the binding entry is recorded as “no binding (tested: OD 0.1 or lower)”.

B12: Antibody 28 (antibody, V domains shown)
VH: QEQLEESGGDLVKPGASLTLTCKVSGFSLTSGYYMCWVRQAPGKGLEWLACIYTGSSGRTYYASWAKGRFTISKTSSTTVTLQMTSLTAADTATFFCARELYLSSVLWGPGTLVTVSS
VL: DVVMTQTPASVSEPVGGTVTIKCQASQSISSSYLSWYQQKPGQPPKLLIYRASTLESGVPSRFKGSGSGTEFTLTISDLECADAATYYCQCTDYAGSYVGGAFGGGTEVVVK
notes: as for B1
As for B12, the binding entry is on record as “no binding (tested: OD 0.1 or lower)”.

B13: Antibody 6 (antibody, V domains shown)
VH: QSVEESGGRLVTPGTPLTLTCTVSGFSLSSYTMGWVRQAPGKGLEYIGIINTGGYTYYASWAKGRFTISRTSTTVDLSMTSLTTEDTATYFCARVYPGSSCDLWGQGTLVTVSS
VL: B12 VL
notes: as for B1
For B13, the binding result is on record as “no binding (tested: OD 0.1 or lower)”.

B14: Antibody 23 (antibody, V domains shown)
VH: QSLEESGGRLVKPGTPLTLTCTASGFSLSSYYMIWVRQAPGKGLEYIGIISSSGSTYYASWAKGRFTISKTSSTTVDLKMTSLTTEDTATYFCGVNNLWGQGTLVTVSS
VL: DPVLTQTPSSVSAAVGGTVTISCQSSQSINNNDLSWFQKKPGQPPKRLIYEASTLTSGVPSRFKGSGSGTQFTLTISDVQCDDAATYYCLGGYYSYGWYFGFGGGTEVVVK
notes: as for B1
Regarding B14, the binding entry is recorded as “no binding (tested: OD 0.1 or lower)”.

B15: Antibody 32 (antibody, V domains shown)
VH: QSVEESGGRLVTPGTPLTLTCTVSGFSLSSYDMSWVRQAPGKGLEWIGFIDGDSNTYDATWAKGRFTISKTSTTVDLKITSPTTEDTATYFCTRGFNLWGQGTLVTVSS
VL: DVVMTQTPASVSEPVGGTVTIKCQASQSISSYLAWYQQKPGQPPKLLIYKASTLASGVSSRFKGSGSGTEFTLTISDLECADAATYYCQCSAGGRSGIGGFGGGTEVVVK
notes: as for B1
For the molecule B15, the binding entry is listed as “no binding (tested: OD 0.1 or lower)”.

B16: Antibody 87 (antibody, V domains shown)
VH: QSVEESGGRLVTPGTPLTVTCTVSGFSLSSYVMSWVRQAPGKGLEWIGIIASSGHTYYATWAKGRFTISKTSTTVDLKITSPTTEDTATYFCARYGSDSGWGYYFTLWGPGTLVTVSS
VL: AQVLTQTPSSVSEPVGGTVTINCQASENIYSYLSWYQQKRGQPPKLLIYGASTLASGVPSRFKGSGSGTEYTLTISDLECDDAATYYCQSGYYTNSGDLAFGGGTEVVVK
notes: as for B1
B16: the binding result is “no binding (tested: OD 0.1 or lower)”.

B17: Antibody 62 (antibody, V domains shown)
VH: QSVEESGGRLVTPGTPLTLTCTVSGFSLSTNDIGWVRQAPGKGLEWIGYIWSGVKTYYVGWAKGRFTISKTSSTTVDLKMTSLTTEDTATYFCARVNSFSYVYSLWGPGTLVTVSS
VL: B9 VL with A9G, A13V, S28D, Y30H, S40P, A55E, D70E, Y92H, G94T, N96G
notes: as for B1
B17: the binding result is listed as “no binding (tested: OD 0.1 or lower)”.

B18: Antibody 1 (antibody, V domains shown)
VH: QSLEESGGRLVTPGTPLTLTCTASGFSLSSYAMIWVRQAPGEGLEYIGIIITGGSAYYANWAKGRFTISRTSTTVDLKMTSLTTEDTATYFCARGYSGSSGDLWGQGTLVTVSS
VL: DVVMTQTPASVSEPVGGTVTIKCQASQSISSWLSWYQQKPGQPPKLLIYGASNLASGVSSRFKGSRSGTEYTLTISDLECADAATYYCQCTDYTSKYVGAFGGGTEVLVR
notes: as for B1
B18: the binding result was “no binding (tested: OD 0.1 or lower)”.

B19: Antibody B08 (antibody, V domains shown)
VH: QEHLVESGGGLVQPEGSLTLTCTASGFDFSSDDMSWVRQAPGKGLEWIGVIGTGNGGTYYASWAKGRFTISKTSSTTVTLQMTSLTAADTATYFCAAFWGLWGPGTLVTVSS
VL: AQVLTQTASPVSAAVGGTVTITCQSSQSVYNNIRLAWFQQKPGQPPKLLIYTTSSLASGVPSRFKGSGSGTQFTLTISDLECDDAATYYCAGGYSSDIYTFGGGTEVVVR
notes: as for B1
On to B19, for which the binding entry is on record as “no binding (tested: OD 0.1 or lower)”.

B20: Antibody D11 (antibody, V domains shown)
VH: B19 VH
VL: B19 VL with A8P, T22N, S28N, N31R, I33N, T53A, S55T, S96T
notes: as for B1
For the molecule B20, the binding entry was “no binding (tested: OD 0.1 or lower)”.

B21: Antibody 75 (antibody, V domains shown)
VH: QSVEESGGRLVTPGTPLTLTCTVSGFSLSRNAMSWVRQAPGKGLEWIGIINIYGTTWYASWAKGRFTISKTSSTTVTLKITSPTTEDTATYFCARDYGGDSATRLNLWGQGTLVTVSS
VL: DVVMTQTPASVEAAVGGTVTIKCQASQSIGGYLSWYQQKPGQPPKLLIYDASNLEIGVPSRFKGSGSGTEYTLTISDLECADAVTYYCQCTYGYGISSSYGNAFGGGTEVVVK
notes: as for B1
For B21, the binding entry was “no binding (tested: OD 0.1 or lower)”.

B22: Antibody 71 (antibody, V domains shown)
VH: B21 VH with Y58H, S60G
VL: B21 VL
notes: as for B1
Regarding B22, the binding result is reported as “no binding (tested: OD 0.1 or lower)”.

B23: Antibody 79 (antibody, V domains shown)
VH: B21 VH with R30S, T55S, W57N, T77D, D100V, N106D
VL: B21 VL with G31S, I56D
notes: as for B1
For the molecule B23, the binding entry is reported as “no binding (tested: OD 0.1 or lower)”.

Values taken from US20150259430A1 (MAB DISCOVERY, published 2015).
